Measured values as given in patent publication US20250051407.
For some of these results: Results from cells or extracts need not show a direct contact. Protein sequences can lack the tags named with them. For some of these results: Construct, isoform or probe ends are uncertain for at least one entry.

How the values were obtained:
[1] = system: T1, DBP048 purified (synthetic construct); assay: BLI; conditions: range for all purified designs; PBS, 1% BSA, 0.05% Tween 20; purified recombinant protein; protein details: His tag; label: biotin
T1 sequence: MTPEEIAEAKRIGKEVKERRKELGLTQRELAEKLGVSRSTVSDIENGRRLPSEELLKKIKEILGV

[2] = system: T2, DBP047 (synthetic construct); assay: flow cytometry; conditions: prefers less than 3 of 13 targets; protein on the cell surface; protein details: yeast display (pETcon3, c-Myc); label: biotin
T2 sequence: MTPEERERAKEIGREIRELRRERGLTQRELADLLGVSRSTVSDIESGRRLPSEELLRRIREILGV

[3] = system: T3, DBP048 (synthetic construct); assay: flow cytometry; conditions: strong binding to alternate target; protein on the cell surface; protein details: yeast display (pETcon3, c-Myc); label: biotin
T3 sequence: T1 sequence

[4] = system: T4, DBP043 (synthetic construct); assay: flow cytometry; conditions: 1 uM dsDNA yeast display; protein on the cell surface; protein details: yeast display (pETcon3, c-Myc); label: biotin
T4 sequence: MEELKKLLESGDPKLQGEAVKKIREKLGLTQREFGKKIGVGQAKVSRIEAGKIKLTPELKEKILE

[5] = system: T5, DBP044 (synthetic construct); assay: flow cytometry; conditions: bound most of the 13 targets; protein on the cell surface; protein details: yeast display (pETcon3, c-Myc); label: biotin
T5 sequence: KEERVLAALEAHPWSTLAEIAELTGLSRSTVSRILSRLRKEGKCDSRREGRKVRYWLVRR

[6] = system: T6, DBP062 purified (synthetic construct); assay: BLI; conditions: range for all purified designs; PBS, 1% BSA, 0.05% Tween 20; purified recombinant protein; protein details: His tag; label: biotin
T6 sequence: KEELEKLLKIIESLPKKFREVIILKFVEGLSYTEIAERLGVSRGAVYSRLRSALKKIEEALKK

[7] = system: T7, DBP061 (synthetic construct); assay: flow cytometry; conditions: 1 uM dsDNA with avidity; protein on the cell surface; protein details: yeast display (pETcon3, c-Myc); label: biotin
T7 sequence: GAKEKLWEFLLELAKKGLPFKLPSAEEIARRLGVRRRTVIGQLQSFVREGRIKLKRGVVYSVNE

[8] = system: T8, DBP062 (synthetic construct); assay: flow cytometry; conditions: strong preference for designed target; protein on the cell surface; protein details: yeast display (pETcon3, c-Myc); label: biotin
T8 sequence: T6 sequence

[9] = system: T9, DBP056 purified (synthetic construct); assay: BLI; conditions: range for all purified designs; PBS, 1% BSA, 0.05% Tween 20; purified recombinant protein; protein details: His tag; label: biotin
T9 sequence: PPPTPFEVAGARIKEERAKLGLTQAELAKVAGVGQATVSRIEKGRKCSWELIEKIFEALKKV

[10] = system: T10, DBP060 (synthetic construct); assay: flow cytometry; conditions: prefers 2-3 of 13 targets; protein on the cell surface; protein details: yeast display (pETcon3, c-Myc); label: biotin
T10 sequence: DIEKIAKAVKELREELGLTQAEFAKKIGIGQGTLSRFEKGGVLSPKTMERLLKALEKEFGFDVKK

[11] = system: T11, DBP058 (synthetic construct); assay: flow cytometry; conditions: 1 uM dsDNA with avidity; protein on the cell surface; protein details: yeast display (pETcon3, c-Myc); label: biotin
T11 sequence: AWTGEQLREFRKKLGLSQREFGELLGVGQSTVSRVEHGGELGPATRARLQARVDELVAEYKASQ

[12] = system: T12, DBP055 (synthetic construct); assay: flow cytometry; conditions: 1 uM dsDNA with avidity; protein on the cell surface; protein details: yeast display (pETcon3, c-Myc); label: biotin
T12 sequence: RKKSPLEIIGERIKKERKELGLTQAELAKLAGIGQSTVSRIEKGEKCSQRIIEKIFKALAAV

[13] = system: T13, DBP051 (synthetic construct); assay: flow cytometry; conditions: prefers less than 3 of 13 targets; protein on the cell surface; protein details: yeast display (pETcon3, c-Myc); label: biotin
T13 sequence: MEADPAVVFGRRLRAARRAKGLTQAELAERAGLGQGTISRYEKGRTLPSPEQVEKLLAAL

[14] = system: T14, DBP057 (synthetic construct); assay: flow cytometry; conditions: strong; site ATCCAG; protein on the cell surface; protein details: yeast display (pETcon3, c-Myc); label: biotin
T14 sequence: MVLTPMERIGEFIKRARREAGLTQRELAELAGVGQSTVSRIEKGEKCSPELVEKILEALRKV

[15] = system: T15, DBP059 (synthetic construct); assay: flow cytometry; conditions: 1 uM dsDNA with avidity; protein on the cell surface; protein details: yeast display (pETcon3, c-Myc); label: biotin
T15 sequence: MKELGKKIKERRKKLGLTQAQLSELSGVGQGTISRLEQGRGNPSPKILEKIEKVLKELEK

[16] = system: T16, DBP056 (synthetic construct); assay: flow cytometry; conditions: 1 uM dsDNA yeast display; protein on the cell surface; protein details: yeast display (pETcon3, c-Myc); label: biotin
T16 sequence: T9 sequence

[17] = system: T17, DBP054 (synthetic construct); assay: flow cytometry; conditions: 1 uM dsDNA with avidity; protein on the cell surface; protein details: yeast display (pETcon3, c-Myc); label: biotin
T17 sequence: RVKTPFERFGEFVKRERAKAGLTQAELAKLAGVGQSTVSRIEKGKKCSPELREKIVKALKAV

[18] = system: T18, DBP052 (synthetic construct); assay: flow cytometry; conditions: prefers 2-3 of 13 targets; protein on the cell surface; protein details: yeast display (pETcon3, c-Myc); label: biotin
T18 sequence: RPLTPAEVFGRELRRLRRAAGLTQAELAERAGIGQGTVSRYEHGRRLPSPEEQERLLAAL

[19] = system: T19, DBP053 (synthetic construct); assay: flow cytometry; conditions: 1 uM dsDNA with avidity; protein on the cell surface; protein details: yeast display (pETcon3, c-Myc); label: biotin
T19 sequence: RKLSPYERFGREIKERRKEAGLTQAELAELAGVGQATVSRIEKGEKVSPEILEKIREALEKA

Measured: binding result

CGACACCTGACGCG (double strand) [target D]
binds: [1] | [2] | [3]

CGAGAACATAGTCG (double strand) [target G]
binds: [4] | [5]

CGCGATGCTTCTCG (double strand) [target F]
binds: [6] | [7] | [8]

CGCTATCCAGAGCG (double strand) [target E]
not listed: [1] | [2] | [3] | [4] | [5] | [6] | [7] | [8]
binds: all other assays above
